Results reported in publication PMC12283363.
These are yes or no findings as the source states them, for the method shown. For some assays here: Binding calls can cover weak binding; strength is not graded here.

What was measured:
Assay in all cases: two-hybrid; Gal4 system (pGBKT7 / pGADT7, Takara); bait and prey plasmids co-transformed into yeast strain Y2HGold, 30 °C; selection on TDO (-His/-Leu/-Trp) or QDO (-Ade/-His/-Leu/-Trp) for five days; empty vectors as controls
[1] = target: T1, HEI10 (Arabidopsis thaliana) (Arabidopsis thaliana) (UniProt F4HRI2)
T1 sequence: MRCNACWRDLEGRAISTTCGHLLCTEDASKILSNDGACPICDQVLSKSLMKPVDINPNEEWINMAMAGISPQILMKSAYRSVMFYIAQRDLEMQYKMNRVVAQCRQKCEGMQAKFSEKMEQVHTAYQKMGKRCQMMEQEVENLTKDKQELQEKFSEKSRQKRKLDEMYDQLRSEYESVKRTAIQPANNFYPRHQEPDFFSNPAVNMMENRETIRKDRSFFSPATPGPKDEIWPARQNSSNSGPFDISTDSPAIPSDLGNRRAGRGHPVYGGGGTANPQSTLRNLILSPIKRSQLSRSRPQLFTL

[2] = target: T2, MER3 (Arabidopsis thaliana) (Arabidopsis thaliana) (UniProt Q5D892)
T2 sequence: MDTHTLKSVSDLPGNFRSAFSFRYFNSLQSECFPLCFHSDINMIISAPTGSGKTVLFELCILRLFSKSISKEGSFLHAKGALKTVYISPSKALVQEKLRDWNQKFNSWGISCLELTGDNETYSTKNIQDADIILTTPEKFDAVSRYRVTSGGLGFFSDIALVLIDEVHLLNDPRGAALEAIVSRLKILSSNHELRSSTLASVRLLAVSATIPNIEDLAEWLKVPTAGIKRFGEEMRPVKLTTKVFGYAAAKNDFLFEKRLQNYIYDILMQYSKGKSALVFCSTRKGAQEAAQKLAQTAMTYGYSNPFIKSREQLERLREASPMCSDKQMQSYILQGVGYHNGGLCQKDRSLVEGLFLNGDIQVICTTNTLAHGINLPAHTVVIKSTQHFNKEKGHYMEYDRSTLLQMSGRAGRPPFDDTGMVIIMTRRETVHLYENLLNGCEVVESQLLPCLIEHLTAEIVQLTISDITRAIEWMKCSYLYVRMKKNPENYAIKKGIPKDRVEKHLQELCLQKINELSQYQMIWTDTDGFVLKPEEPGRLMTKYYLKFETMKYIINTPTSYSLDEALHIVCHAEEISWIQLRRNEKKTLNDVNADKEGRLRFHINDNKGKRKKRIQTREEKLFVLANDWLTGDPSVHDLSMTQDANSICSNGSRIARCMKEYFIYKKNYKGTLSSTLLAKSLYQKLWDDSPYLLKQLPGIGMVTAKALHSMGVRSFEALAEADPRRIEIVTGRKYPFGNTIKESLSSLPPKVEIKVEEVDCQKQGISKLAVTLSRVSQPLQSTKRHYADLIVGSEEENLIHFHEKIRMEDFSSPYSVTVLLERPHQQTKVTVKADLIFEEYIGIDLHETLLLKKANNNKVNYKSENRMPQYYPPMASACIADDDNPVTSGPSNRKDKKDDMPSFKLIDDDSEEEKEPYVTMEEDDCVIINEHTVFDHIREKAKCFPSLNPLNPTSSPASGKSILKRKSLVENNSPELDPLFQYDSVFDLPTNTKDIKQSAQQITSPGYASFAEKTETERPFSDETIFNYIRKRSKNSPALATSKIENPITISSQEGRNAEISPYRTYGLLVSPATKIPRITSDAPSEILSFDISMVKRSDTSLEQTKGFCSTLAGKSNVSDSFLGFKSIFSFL

[3] = target: T3, PRD3 (Arabidopsis thaliana) (Arabidopsis thaliana) (UniProt Q0WWX5)
T3 sequence: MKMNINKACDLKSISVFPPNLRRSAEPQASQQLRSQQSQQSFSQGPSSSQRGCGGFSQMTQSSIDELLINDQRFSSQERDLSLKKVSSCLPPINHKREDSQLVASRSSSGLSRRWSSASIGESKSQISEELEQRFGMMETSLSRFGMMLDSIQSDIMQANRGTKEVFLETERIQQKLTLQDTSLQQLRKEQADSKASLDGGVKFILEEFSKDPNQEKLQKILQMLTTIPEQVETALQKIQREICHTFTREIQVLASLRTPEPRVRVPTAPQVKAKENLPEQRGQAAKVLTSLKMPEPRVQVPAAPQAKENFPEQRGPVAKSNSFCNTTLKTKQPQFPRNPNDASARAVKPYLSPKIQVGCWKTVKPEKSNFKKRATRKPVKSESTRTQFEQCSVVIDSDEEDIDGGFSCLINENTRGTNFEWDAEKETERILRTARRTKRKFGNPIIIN

[4] = target: T4, PTD (Arabidopsis thaliana) (Arabidopsis thaliana) (UniProt F4IDW9)
T4 sequence: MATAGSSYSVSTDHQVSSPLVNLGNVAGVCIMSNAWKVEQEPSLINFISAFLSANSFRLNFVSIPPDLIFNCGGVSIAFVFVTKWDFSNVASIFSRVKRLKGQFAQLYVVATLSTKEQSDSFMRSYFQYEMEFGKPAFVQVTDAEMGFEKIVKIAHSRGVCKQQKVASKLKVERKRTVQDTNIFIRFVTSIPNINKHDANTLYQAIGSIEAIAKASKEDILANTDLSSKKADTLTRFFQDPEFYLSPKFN

[5] = target: T5, ZYP1a (Arabidopsis thaliana), full-length (Arabidopsis thaliana) (UniProt Q9LME2)
T5 sequence: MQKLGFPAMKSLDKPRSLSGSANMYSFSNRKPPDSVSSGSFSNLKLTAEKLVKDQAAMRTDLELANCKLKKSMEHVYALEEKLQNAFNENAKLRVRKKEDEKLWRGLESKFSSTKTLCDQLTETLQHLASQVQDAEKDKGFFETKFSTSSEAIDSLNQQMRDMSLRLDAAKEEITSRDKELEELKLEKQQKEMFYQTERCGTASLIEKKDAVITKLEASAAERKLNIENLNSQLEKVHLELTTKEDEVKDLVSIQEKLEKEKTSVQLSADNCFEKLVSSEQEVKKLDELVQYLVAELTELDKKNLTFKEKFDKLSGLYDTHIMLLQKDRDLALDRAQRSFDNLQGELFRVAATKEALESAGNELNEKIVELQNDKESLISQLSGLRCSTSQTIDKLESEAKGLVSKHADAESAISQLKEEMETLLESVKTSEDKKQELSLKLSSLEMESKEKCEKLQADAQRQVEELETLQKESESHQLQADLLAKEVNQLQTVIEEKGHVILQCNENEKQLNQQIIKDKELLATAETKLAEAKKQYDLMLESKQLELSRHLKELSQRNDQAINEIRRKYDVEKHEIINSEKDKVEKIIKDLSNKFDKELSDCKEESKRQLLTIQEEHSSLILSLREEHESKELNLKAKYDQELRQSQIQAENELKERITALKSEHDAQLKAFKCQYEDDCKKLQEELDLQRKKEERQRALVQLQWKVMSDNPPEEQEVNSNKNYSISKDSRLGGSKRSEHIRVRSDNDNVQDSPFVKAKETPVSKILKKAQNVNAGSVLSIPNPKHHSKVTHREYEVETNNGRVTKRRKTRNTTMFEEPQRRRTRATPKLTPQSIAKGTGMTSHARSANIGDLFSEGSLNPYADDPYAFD

[6] = target: T6, ZYP1b (Arabidopsis thaliana), full-length (Arabidopsis thaliana) (UniProt P61430)
T6 sequence: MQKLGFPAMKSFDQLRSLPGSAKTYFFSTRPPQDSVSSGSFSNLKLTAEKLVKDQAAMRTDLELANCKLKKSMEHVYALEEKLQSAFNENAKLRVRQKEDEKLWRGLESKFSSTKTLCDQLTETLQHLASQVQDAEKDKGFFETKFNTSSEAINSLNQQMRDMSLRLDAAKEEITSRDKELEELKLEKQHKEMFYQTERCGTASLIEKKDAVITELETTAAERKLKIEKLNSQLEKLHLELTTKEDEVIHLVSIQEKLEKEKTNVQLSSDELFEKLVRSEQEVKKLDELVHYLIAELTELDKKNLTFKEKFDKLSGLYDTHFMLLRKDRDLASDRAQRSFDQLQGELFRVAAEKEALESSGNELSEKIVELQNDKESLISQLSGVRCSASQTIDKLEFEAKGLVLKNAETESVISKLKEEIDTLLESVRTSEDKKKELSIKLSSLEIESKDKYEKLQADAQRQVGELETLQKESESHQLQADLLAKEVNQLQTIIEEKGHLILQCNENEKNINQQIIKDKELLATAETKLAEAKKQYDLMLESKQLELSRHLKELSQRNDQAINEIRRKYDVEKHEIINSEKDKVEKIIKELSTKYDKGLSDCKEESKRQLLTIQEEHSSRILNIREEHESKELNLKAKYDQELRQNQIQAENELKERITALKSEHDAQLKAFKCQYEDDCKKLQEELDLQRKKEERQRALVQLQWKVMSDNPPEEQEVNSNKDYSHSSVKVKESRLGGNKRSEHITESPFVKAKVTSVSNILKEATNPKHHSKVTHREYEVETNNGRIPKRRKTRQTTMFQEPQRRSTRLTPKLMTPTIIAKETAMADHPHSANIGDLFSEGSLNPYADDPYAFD

[7] = target: T7, ZYP1b N-terminal region (amino acids 49-400) (Arabidopsis thaliana) (UniProt P61430)
T7 sequence: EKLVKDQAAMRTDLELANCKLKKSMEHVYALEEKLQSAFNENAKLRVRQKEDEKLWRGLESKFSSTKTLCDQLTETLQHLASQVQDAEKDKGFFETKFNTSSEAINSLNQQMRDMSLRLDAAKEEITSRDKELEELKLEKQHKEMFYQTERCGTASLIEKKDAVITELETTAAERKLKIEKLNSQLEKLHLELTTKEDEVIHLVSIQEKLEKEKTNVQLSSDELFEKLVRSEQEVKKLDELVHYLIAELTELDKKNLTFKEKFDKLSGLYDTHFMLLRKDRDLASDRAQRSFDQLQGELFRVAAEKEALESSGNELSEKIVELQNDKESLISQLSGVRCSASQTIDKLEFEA

Row | Substance | binding [1] | binding [2] | binding [3] | binding [4] | binding [5] | binding [6] | binding [7]
1 | SCEP3 (Arabidopsis thaliana), full-length (from UniProt A0A1P8B5R8) | no binding | no binding | no binding | no binding | binds | binds | binds
2 | SCEP3 C-terminal region (amino acids 734-803) (Arabidopsis thaliana) (domain or fragment) |  |  |  |  |  | binds | 
